Data as given in PubChem BioAssay AID504786 (Drosophila RNAi Screening Center, 2011).
The screen tested about 21,000 reagents; this is an unselected part of those that have a named target and a result. 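Primary screen; positive scores mean lost reporter signal, so the sign may be inverted from the usual convention.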 The numbers tell different reagents against one gene apart. A plus sign joins genes that one reagent is predicted to hit. Not all columns of the deposit are shown.

Purpose: 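Fly genes required for HIF-dependent transcription when hypoxia is mimicked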 (primary screen)
Cells: Drosophila S2 cells with a stable HIF luciferase reporter
Reagent: long dsRNA against Drosophila genes, about 0.2 µg dsRNA per well of a 384-well plate
Time to read-out: three days of knock-down, then 20 h of DFO before reading
Conditions: desferrioxamine (DFO) at 100 µM, an iron chelator that mimics hypoxia, for 20 h
Measurement: 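Firefly luciferase driven by the mouse ldh-a hypoxia-response element, measured after 20 h of 100 µM DFO; z-scores per plate, higher means more signal lost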
Reading the numbers: z-score: higher = stronger loss of HIF reporter signal

Knock-down of wgn gave: z-score, replicate 1 = 0.3.
After knock-down of CG32241, the screen gave z-score, replicate 1 = -0.4.
After knock-down of CG14143, the record shows z-score, replicate 1 = -0.3.
Knock-down of CG5376 came out at: z-score, replicate 1 = 1.5.
CG34367 #1 gave z-score, replicate 1 = -0.3.
Silencing of CG34367 #2 came out at: z-score, replicate 1 = -0.2.
After knock-down of Ir8a #1, the record shows z-score, replicate 1 = -0.2.
Ir8a #2 showed z-score, replicate 1 = -0.2.
Rab23 scored z-score, replicate 1 = -0.4.
Depletion of CG12017 gave: z-score, replicate 1 = -0.2.
Knock-down of CG10418 came out at: z-score, replicate 1 = 0.
For ash1, the values are z-score, replicate 1 = 0.8.

A portion from the list above:
CG14143: z-score, replicate 1 = -0.3
CG5376: z-score, replicate 1 = 1.5

The results go on:
After knock-down of CG12682, the record shows z-score, replicate 1 = -0.2.
With knock-down of Spt, the screen gave z-score, replicate 1 = -0.3.
With knock-down of Grx1 the results were z-score, replicate 1 = 0.1.
After knock-down of CG15517, the screen gave z-score, replicate 1 = -0.2.
IntS8 scored z-score, replicate 1 = 0.1.
For Polr2F, the entry reads z-score, replicate 1 = 4.6.
Against CG7990 #1, the entry reads z-score, replicate 1 = 0.1.
Knock-down of CG7990 #2 gave: z-score, replicate 1 = 2.1.
CG7860 scored z-score, replicate 1 = -0.4.
With knock-down of CG11113 the results were z-score, replicate 1 = -0.2.
For CG10321, the entry reads z-score, replicate 1 = -0.5.
With knock-down of CG3176 + CR18166 + CG32817 #1 the results were z-score, replicate 1 = -0.1.
Silencing of CG3176 + CR18166 + CG32817 #2 gave: z-score, replicate 1 = 0.2.
CG3176 + CR18166 + CG32817 #3 showed z-score, replicate 1 = -0.2.
With knock-down of Nek2, the record shows z-score, replicate 1 = -0.4.
